This passage reports binding results from paper doi:10.1101/2022.07.25.501345.

The chains behind the UniProt entries cited, without tags or fusion partners.
UniProt P09884: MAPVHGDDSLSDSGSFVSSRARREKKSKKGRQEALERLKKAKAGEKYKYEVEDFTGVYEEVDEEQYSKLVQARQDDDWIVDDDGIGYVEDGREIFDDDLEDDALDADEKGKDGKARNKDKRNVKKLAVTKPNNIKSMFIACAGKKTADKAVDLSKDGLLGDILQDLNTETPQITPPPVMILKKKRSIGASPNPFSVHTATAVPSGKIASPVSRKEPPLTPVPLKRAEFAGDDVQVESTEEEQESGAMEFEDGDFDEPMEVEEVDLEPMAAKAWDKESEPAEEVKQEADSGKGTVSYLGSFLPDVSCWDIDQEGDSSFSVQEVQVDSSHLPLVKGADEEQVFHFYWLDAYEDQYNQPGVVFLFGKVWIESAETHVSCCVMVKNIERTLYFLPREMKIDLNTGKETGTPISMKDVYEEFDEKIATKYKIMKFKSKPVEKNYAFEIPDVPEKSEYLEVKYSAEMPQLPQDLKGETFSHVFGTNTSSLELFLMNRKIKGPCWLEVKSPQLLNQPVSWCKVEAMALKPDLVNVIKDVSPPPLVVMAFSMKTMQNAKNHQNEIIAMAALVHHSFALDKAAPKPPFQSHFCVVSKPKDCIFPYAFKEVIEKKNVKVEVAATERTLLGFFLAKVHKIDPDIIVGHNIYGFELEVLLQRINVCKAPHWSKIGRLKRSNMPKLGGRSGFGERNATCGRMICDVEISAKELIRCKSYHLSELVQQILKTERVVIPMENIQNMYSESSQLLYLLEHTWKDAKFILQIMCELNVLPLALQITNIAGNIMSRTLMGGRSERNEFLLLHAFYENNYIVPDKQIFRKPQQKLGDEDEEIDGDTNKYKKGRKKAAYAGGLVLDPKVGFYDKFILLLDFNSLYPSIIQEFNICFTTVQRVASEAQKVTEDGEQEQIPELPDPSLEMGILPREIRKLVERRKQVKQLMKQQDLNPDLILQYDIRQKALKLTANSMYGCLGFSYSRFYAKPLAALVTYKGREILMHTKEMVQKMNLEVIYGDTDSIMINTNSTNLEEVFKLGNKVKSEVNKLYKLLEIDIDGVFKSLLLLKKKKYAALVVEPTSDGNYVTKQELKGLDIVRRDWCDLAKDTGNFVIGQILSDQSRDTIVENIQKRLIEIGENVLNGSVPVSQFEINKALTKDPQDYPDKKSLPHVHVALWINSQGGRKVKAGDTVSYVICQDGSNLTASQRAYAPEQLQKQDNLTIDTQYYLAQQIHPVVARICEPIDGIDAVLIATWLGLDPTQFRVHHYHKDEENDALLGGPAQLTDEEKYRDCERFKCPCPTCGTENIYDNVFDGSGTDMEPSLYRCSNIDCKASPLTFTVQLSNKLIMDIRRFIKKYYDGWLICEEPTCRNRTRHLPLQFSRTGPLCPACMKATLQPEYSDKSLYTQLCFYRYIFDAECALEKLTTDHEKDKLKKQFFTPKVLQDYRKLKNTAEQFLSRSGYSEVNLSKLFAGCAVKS
UniProt P15927: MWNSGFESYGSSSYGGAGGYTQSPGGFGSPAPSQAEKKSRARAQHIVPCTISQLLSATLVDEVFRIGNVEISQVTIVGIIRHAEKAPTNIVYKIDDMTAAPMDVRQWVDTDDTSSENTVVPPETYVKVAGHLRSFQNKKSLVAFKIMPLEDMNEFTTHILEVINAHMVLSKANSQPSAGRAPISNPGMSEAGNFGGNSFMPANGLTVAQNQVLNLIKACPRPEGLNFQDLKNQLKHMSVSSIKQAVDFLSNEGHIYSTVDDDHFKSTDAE

No constants are given. Whether binding was seen depends on the method and setting. In cells and extracts the contact can be indirect. Some binding calls cover weakened binding; strength is not graded here.

Common to all, as to assay: co-IP
For assay [1], the target named is T1, UFD1L (human (endogenous in HCT116)) (UniProt Q92890).
T1 sequence: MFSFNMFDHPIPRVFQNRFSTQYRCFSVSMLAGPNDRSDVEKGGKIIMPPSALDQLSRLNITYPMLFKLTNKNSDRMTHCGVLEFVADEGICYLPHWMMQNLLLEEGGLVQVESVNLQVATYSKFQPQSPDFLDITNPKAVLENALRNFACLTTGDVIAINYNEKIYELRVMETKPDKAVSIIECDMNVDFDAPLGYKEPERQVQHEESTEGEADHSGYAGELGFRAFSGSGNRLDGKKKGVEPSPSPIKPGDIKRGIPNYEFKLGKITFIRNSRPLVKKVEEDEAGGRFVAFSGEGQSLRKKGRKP

For assay [2], the target named is T2, PRIM2 (human (endogenous in HCT116)) (UniProt P49643).
T2 sequence: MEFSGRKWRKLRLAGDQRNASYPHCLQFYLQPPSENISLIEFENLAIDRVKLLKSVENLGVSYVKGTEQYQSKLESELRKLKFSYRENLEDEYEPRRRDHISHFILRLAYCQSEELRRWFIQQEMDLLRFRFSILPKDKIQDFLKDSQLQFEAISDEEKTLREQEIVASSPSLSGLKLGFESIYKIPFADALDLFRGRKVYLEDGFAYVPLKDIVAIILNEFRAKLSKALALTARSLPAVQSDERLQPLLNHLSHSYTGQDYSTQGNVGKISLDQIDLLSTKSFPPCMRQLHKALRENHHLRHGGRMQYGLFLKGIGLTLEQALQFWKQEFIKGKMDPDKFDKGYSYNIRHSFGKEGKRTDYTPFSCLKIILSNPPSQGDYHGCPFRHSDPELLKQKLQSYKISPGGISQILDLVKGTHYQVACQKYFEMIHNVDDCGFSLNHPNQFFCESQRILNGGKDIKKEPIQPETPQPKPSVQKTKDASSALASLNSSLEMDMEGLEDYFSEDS

The target of assay [3] is VCP/p97 (human (endogenous in HCT116)) (UniProt P55072).

On to POLA1 (from UniProt P09884 1-1462), for which the binding result in assay [1] is “binds”.
As for RPA2 (from UniProt P15927 1-270), the binding result in assay [2] and in assay [3] was “no binding” throughout.

B1: PRIM2 (protein, UniProt P49643 1-509)
chain: MEFSGRKWRKLRLAGDQRNASYPHCLQFYLQPPSENISLIEFENLAIDRVKLLKSVENLGVSYVKGTEQYQSKLESELRKLKFSYRENLEDEYEPRRRDHISHFILRLAYCQSEELRRWFIQQEMDLLRFRFSILPKDKIQDFLKDSQLQFEAISDEEKTLREQEIVASSPSLSGLKLGFESIYKIPFADALDLFRGRKVYLEDGFAYVPLKDIVAIILNEFRAKLSKALALTARSLPAVQSDERLQPLLNHLSHSYTGQDYSTQGNVGKISLDQIDLLSTKSFPPCMRQLHKALRENHHLRHGGRMQYGLFLKGIGLTLEQALQFWKQEFIKGKMDPDKFDKGYSYNIRHSFGKEGKRTDYTPFSCLKIILSNPPSQGDYHGCPFRHSDPELLKQKLQSYKISPGGISQILDLVKGTHYQVACQKYFEMIHNVDDCGFSLNHPNQFFCESQRILNGGKDIKKEPIQPETPQPKPSVQKTKDASSALASLNSSLEMDMEGLEDYFSEDS
Regarding B1, in assay [1], the binding result is “binds”.
